Data on 31 molecules can be found in PubChem BioAssay AID330 (DTP/NCI, 2004).

The subject of this experiment is P388 leukemia ip, CD2F1 mice, survival T/C. Nature of the experiment: NCI In Vivo Anticancer Drug Screen. Data for tumor model P388 Leukemia (intraperitoneal) in CD2F1 (CDF1) mice. The note with it: T/C endpoint: median survival time, higher T/C = longer survival.
The mark [1] stands for this setting: dose: 50.0 mg/kg/injection, schedule: Q01DX005 (ip), vehicle: saline with Tween-80.
The mark [2] stands for this setting: dose: 100.0 mg/kg/injection, schedule: Q01DX005 (ip), vehicle: saline with Tween-80.
Where [3] appears, read: dose: 200.0 mg/kg/injection, schedule: Q01DX005 (ip), vehicle: saline with Tween-80.
[4] abbreviates: dose: 240.0 mg/kg/injection, schedule: Q01DX005 (ip), vehicle: saline with Tween-80.
Setting [5] is: dose: 100.0 mg/kg/injection, schedule: Q01DX009 (ip), vehicle: saline with Tween-80.
[6] abbreviates: dose: 200.0 mg/kg/injection, schedule: Q01DX009 (ip), vehicle: saline with Tween-80.
Where [7] appears, read: dose: 400.0 mg/kg/injection, schedule: Q01DX009 (ip), vehicle: saline with Tween-80.
[8] abbreviates: dose: 25.0 mg/kg/injection, schedule: Q01DX009 (ip), vehicle: Klucel (hydroxypropylcellulose) (HPC).
Where [9] appears, read: dose: 50.0 mg/kg/injection, schedule: Q01DX009 (ip), vehicle: Klucel (hydroxypropylcellulose) (HPC).
The mark [10] stands for this setting: dose: 100.0 mg/kg/injection, schedule: Q01DX009 (ip), vehicle: Klucel (hydroxypropylcellulose) (HPC).
Where [11] appears, read: dose: 200.0 mg/kg/injection, schedule: Q01DX009 (ip), vehicle: Klucel (hydroxypropylcellulose) (HPC).
[12] abbreviates: dose: 400.0 mg/kg/injection, schedule: Q04DX003 (ip), vehicle: saline with Tween-80.
Setting [13] is: dose: 60.0 mg/kg/injection, schedule: Q01DX005 (ip), vehicle: saline with Tween-80.
Setting [14] is: dose: 120.0 mg/kg/injection, schedule: Q01DX005 (ip), vehicle: saline with Tween-80.
[15] abbreviates: dose: 200.0 mg/kg/injection, schedule: Q01DX009 (ip), vehicle: saline.

The list is a part of this screen's results and no random one: it is rich in T/C values a quarter to a half above the control, in often repeated tests (any T/C) and in doses without a T/C. Other doses and runs of a compound stand elsewhere. T/C is the treated group as % of the vehicle group. Some entries give survivors of the animals treated and no T/C: the source holds a T/C of zero for them, seemingly a mark for toxic or unscored doses. Some survivor counts are full or nearly so, which does not show that the dose was tolerated: the source hardly ever lists a survival T/C far under the control, and the zero likely stands for such cases as well. Counts of survivors are from the toxicity check (mostly the fifth day) where no day follows; animals may have died later. Schedules are NCI's codes, read here as Q, the interval in days (D) or hours (H), X, the number of doses. Some doses were run more than once; the results are listed from low to high. Some structures stand for samples that the source files as different forms (salt, stereo form or complex); doses refer to the form tested. Where survival is the endpoint, this PubChem deposit counts one and a half times the control or more as active, and values a quarter to a half above the control carry no call in these data; other NCI protocols may use other cut-offs.

As to `CCOP(=S)(Oc1cnn(C)c(=O)c1OC)OC(C)C` (stereo not given), the survivor count runs as follows: (dose: 6.25 mg/kg/injection, schedule: Q01DX005 (ip), vehicle: saline with Tween-80) 4 of 6; (dose: 12.5 mg/kg/injection, schedule: Q01DX005 (ip), vehicle: saline with Tween-80) 0 of 6; (dose: 25.0 mg/kg/injection, schedule: Q01DX005 (ip), vehicle: saline with Tween-80) 0 of 6; under setting [1], 0 of 6; under setting [2], 0 of 6; under setting [3], 0 of 6.
Turning to `c1ccc2c3c([nH]c2c1)C1CC2CCCCC2CN1CC3` (stereo not given), the survivor count under setting [4] is on record as 0 of 6.
With `Cc1ccc2nc(N/N=C/c3cccc(C)n3)cc(C)c2c1`, the survivor count under setting [3] was 0 of 6.
`CSc1nc(N)n2ncc(Br)c2n1`: the survivor count by setting is: (dose: 200.0 mg/kg/injection, schedule: Q04DX002 (ip), vehicle: saline with Tween-80) 6 of 6; (dose: 400.0 mg/kg/injection, schedule: Q04DX002 (ip), vehicle: saline with Tween-80) 5 of 5.
For `Cc1cc(C(=O)O)c(C)c2c1sc1ccccc12`, under setting [4], the survivor count is reported as 0 of 6.
Take `CN1CCN(C(=O)N2CCCc3ccccc32)CC1`: the survivor count (dose: 400.0 mg/kg/injection, schedule: Q04DX003 (ip), vehicle: saline) is given as 0 of 6.
Regarding `CC(N)(CCS(=O)CP(=O)(O)O)C(=O)O` (stereo not given), where the note is “dose: 240.0 mg/kg/injection, schedule: Q01DX005 (ip), vehicle: saline”, the survivor count is 5 of 6.
Consider `O=C1O/C(=C(/C(=O)O)c2ccc(O)cc2)C(O)=C1c1cc2c3c(c(O)cc(C4=C(O)/C(=C(\C(=O)O)c5ccc(O)cc5)OC4=O)c3c1)OC2=O`, for which the survivor count reads like this: (dose: 48.0 mg/kg/injection, schedule: Q01DX005 (ip), vehicle: DMSO) 3 of 6; (dose: 82.0 mg/kg/injection, schedule: Q01DX005 (ip), vehicle: DMSO) 5 of 6; (dose: 96.0 mg/kg/injection, schedule: Q01DX005 (ip), vehicle: DMSO) 0 of 6.
Take `CCCOC(=O)c1nc(N(CC2CCCCC2)C(=O)NC)sc1/N=C/c1ccccc1`: the survivor count is given as 6 of 6 under setting [5], 6 of 6 under setting [6] and 6 of 6 under setting [7].
Take `C=CC(O)CC#N` (stereo not given): the survivor count runs as follows: (dose: 150.0 mg/kg/injection, schedule: Q01DX009 (ip), vehicle: saline with Tween-80) 0 of 6; (dose: 300.0 mg/kg/injection, schedule: Q01DX009 (ip), vehicle: saline with Tween-80) 0 of 6.
On to `CN(C)CCSSCCN(C)C.[Cl][Zn][Cl]`, for which the survivor count is listed as 3 of 6 (dose: 50.0 mg/kg/injection, schedule: Q01DX005 (ip), vehicle: Klucel (hydroxypropylcellulose) (HPC)); 0 of 6 (dose: 100.0 mg/kg/injection, schedule: Q01DX005 (ip), vehicle: Klucel (hydroxypropylcellulose) (HPC)); 0 of 6 (dose: 200.0 mg/kg/injection, schedule: Q01DX005 (ip), vehicle: Klucel (hydroxypropylcellulose) (HPC)).
With `CC(=O)NC(CC(C)C)C(=O)NC(Cc1ccccc1)C(=O)CCl` (stereo not given), the T/C under setting [8] is 127 % of control. Besides, the survivor count is on record as 3 of 6 under setting [9]; 0 of 6 under setting [10]; 0 of 6 under setting [11]; 0 of 6 (dose: 400.0 mg/kg/injection, schedule: Q01DX009 (ip), vehicle: Klucel (hydroxypropylcellulose) (HPC)).
Take `CC(=O)Nc1ccc2c(c1)/C(=C/c1ccc(N(C)C)cc1)c1ccccc1-2`: the survivor count by setting is: under setting [8], 6 of 6; under setting [9], 6 of 6; under setting [10], 6 of 6; under setting [11], 6 of 6.
Consider `S=c1cc(-c2ccccc2)c(-c2ccccc2)c(-c2ccccc2)s1`, for which, under “dose: 400.0 mg/kg/injection, schedule: Q01DX001 (ip), vehicle: saline with Tween-80”, the survivor count is 6 of 6.
As for `CCSc1ccc(N2C(N)=NC(N)=NC2(C)C)cc1`, the survivor count under setting [1] was 0 of 5, the survivor count under setting [2] is recorded as 0 of 5 and the survivor count under setting [3] is 0 of 5.
`Cc1cc(C)cc(C(C)(C)C)c1`: the survivor count under setting [12] was 4 of 6.
In the case of `O=S(=O)(O)SCCNCCCCC1CCCCC1`, the survivor count is, setting by setting: under setting [13], 3 of 6; under setting [14], 0 of 6; under setting [4], 0 of 6.
For `CCC[CH2][Sn]([CH2]CCC)([CH2]CCC)[C]1(CCCC2CO2)SCCCS1` (stereo not given), the survivor count is given as 6 of 6 (dose: 50.0 mg/kg/injection, schedule: Q01DX009 (ip), vehicle: saline with Tween-80); 4 of 6 under setting [5]; 0 of 6 under setting [6].
With `CCOP(=O)(OCC)C(C#N)OC(C)(C)C` (stereo not given), the survivor count under setting [4] is 2 of 6.
In the case of `COc1ccc(-n2[nH]c3c(cnc4ccccc43)c2=O)cc1`, the survivor count under setting [13] was 6 of 6 and the survivor count under setting [14] was 6 of 6.
Consider `CN(Cc1cnc2nc(N)nc(N)c2n1)c1ccc(C(=O)NC(CCC(=O)O)C(=O)O)cc1Br` (stereo not given), for which the survivor count (dose: 5.0 mg/kg/injection, schedule: Q01DX009 (ip), vehicle: saline sonified) is reported as 5 of 6; the survivor count (dose: 10.0 mg/kg/injection, schedule: Q01DX009 (ip), vehicle: saline sonified) is 5 of 6; the survivor count (dose: 20.0 mg/kg/injection, schedule: Q01DX009 (ip), vehicle: saline sonified) is given as 5 of 6. In addition, the T/C was 129 % of control (dose: 15.0 mg/kg/injection, schedule: Q04DX003 (ip), vehicle: saline with Tween-80) and 135 % of control (dose: 20.0 mg/kg/injection, schedule: Q04DX003 (ip), vehicle: saline with Tween-80).
As for `O=C1CSC(=S)N1Cc1ccncc1`, the survivor count under setting [7] is reported as 2 of 6.
As for `O=C(Nc1ccccc1)Nc1nccs1`, the survivor count under setting [7] is listed as 0 of 6.
Turning to `C[N+](C)(C)C1CCC2CCCCC2C1` (stereo not given), the survivor count (dose: 100.0 mg/kg/injection, schedule: Q04DX003 (ip), vehicle: saline with Tween-80) is 4 of 6 and 6 of 6; the survivor count (dose: 200.0 mg/kg/injection, schedule: Q04DX003 (ip), vehicle: saline with Tween-80) was 1 of 6; the survivor count under setting [12] is 0 of 6.
Turning to `NCCN(Cc1ccccc1)C1CC1`, the survivor count under setting [15] is listed as 0 of 6.
On the same count and under the same terms, next, `C#CC(C)(O)C(C)(C)C` (stereo not given): 5 of 6.
In the case of `COc1cc(NCCCCCNC(C)(C)C)c2ncccc2c1`, the survivor count runs as follows: under setting [2], 2 of 5; under setting [3], 0 of 5.
Consider `O=P1(NCCCl)OCCCN1CCCl` (stereo not given), for which the T/C reads like this: (dose: 15.0 mg/kg/injection, schedule: Q01DX005 (ip), vehicle: saline) 131 % of control; (dose: 15.0 mg/kg/injection, schedule: Q01DX005 (iv), vehicle: saline) 128 % of control; (dose: 30.0 mg/kg/injection, schedule: Q01DX005 (ip), vehicle: saline) 147 % of control. For the same molecule, under “dose: 400.0 mg/kg/injection, schedule: Q01DX009 (ip), vehicle: saline”, the survivor count is recorded as 6 of 6.
For the molecule `CN=c1ccc2cc3ccc(NC)cc3oc-2c1`, the survivor count (dose: 200.0 mg/kg/injection, schedule: Q01DX005 (ip), vehicle: saline) is 0 of 5.
Regarding `C/C(=N\NC(=S)Nc1ccc(C(=O)O)cc1)c1ccccn1`, the survivor count by setting is: under setting [2], 0 of 6; under setting [3], 0 of 6.
Regarding `NC(CS/C(Cl)=C/Cl)C(=O)O` (stereo not given), the T/C (dose: 18.0 mg/kg/injection, schedule: Q01DX009 (ip), vehicle: saline with Tween-80) was 129 % of control. Moreover, the survivor count (dose: 40.0 mg/kg/injection, schedule: Q01DX009 (ip), vehicle: saline with Tween-80) was 4 of 6.
